# Laboratory results as given in the supplement of paper PMC10032668.
# Protein sequences, listed by entry. Tags and fused reporters are not part of them.
# ATG3, Q9NT62, UniProt Q9NT62, whole entry: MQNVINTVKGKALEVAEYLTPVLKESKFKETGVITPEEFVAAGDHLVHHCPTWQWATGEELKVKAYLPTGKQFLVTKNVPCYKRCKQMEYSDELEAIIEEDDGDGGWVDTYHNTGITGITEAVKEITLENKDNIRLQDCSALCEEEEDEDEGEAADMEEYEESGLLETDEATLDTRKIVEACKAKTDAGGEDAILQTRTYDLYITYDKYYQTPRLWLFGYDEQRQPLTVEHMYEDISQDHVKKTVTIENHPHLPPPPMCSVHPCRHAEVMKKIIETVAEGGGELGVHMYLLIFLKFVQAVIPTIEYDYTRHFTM
# KAT7, O95251, UniProt O95251, whole entry: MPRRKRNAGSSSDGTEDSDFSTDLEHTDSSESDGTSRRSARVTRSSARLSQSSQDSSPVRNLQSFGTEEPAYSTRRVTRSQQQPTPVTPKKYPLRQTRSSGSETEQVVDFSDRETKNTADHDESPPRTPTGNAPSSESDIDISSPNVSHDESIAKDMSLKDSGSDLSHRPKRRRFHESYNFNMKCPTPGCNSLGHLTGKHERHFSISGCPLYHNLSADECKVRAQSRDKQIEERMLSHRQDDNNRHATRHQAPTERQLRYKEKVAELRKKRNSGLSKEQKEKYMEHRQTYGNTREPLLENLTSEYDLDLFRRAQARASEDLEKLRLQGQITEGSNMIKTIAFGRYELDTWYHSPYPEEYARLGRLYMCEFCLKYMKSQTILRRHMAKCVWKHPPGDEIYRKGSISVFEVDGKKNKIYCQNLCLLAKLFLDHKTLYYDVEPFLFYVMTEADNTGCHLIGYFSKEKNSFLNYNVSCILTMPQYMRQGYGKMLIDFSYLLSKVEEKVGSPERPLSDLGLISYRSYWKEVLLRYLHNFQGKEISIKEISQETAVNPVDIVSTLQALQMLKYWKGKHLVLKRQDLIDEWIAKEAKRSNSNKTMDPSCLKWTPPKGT
# DCAF16, Q9NXF7, UniProt Q9NXF7, whole entry: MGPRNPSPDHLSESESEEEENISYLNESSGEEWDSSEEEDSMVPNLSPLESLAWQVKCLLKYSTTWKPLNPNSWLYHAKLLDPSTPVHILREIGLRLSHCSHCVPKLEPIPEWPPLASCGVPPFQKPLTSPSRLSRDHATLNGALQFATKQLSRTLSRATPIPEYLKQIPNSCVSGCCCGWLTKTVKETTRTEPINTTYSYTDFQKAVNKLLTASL
# PDIA3, P30101, UniProt P30101, whole entry: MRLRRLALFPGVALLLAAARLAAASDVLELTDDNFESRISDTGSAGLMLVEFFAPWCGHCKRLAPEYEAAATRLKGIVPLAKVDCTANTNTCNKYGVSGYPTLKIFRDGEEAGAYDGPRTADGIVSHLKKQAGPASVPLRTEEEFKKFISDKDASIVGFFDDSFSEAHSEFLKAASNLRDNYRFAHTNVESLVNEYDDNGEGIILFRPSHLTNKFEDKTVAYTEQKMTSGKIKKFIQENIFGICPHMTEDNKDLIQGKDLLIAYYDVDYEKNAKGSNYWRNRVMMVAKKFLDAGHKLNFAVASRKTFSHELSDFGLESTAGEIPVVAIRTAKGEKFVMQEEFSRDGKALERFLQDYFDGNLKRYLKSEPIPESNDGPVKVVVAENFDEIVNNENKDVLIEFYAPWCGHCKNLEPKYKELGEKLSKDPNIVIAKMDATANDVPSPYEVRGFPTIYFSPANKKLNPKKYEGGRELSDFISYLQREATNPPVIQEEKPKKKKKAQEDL
# CCNT1, O60563, UniProt O60563, whole entry: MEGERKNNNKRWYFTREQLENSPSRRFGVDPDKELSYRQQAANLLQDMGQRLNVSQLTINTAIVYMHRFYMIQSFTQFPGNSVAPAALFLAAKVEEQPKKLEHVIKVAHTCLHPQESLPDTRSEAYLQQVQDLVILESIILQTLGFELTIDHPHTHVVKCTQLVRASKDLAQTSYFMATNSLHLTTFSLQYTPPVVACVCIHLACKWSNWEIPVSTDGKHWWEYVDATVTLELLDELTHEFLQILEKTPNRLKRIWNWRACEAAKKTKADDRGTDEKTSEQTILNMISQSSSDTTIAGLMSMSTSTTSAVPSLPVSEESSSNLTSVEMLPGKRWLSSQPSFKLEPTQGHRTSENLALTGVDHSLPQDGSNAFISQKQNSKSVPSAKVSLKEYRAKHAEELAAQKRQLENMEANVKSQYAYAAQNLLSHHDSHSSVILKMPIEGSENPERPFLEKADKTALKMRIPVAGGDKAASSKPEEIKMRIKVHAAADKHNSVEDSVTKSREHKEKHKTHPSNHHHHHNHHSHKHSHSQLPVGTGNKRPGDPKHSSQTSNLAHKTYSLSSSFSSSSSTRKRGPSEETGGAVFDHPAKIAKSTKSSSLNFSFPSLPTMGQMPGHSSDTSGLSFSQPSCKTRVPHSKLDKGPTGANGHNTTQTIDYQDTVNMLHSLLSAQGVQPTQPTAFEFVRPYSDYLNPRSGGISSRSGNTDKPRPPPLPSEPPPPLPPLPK
# DDB1, Q16531, UniProt Q16531, whole entry: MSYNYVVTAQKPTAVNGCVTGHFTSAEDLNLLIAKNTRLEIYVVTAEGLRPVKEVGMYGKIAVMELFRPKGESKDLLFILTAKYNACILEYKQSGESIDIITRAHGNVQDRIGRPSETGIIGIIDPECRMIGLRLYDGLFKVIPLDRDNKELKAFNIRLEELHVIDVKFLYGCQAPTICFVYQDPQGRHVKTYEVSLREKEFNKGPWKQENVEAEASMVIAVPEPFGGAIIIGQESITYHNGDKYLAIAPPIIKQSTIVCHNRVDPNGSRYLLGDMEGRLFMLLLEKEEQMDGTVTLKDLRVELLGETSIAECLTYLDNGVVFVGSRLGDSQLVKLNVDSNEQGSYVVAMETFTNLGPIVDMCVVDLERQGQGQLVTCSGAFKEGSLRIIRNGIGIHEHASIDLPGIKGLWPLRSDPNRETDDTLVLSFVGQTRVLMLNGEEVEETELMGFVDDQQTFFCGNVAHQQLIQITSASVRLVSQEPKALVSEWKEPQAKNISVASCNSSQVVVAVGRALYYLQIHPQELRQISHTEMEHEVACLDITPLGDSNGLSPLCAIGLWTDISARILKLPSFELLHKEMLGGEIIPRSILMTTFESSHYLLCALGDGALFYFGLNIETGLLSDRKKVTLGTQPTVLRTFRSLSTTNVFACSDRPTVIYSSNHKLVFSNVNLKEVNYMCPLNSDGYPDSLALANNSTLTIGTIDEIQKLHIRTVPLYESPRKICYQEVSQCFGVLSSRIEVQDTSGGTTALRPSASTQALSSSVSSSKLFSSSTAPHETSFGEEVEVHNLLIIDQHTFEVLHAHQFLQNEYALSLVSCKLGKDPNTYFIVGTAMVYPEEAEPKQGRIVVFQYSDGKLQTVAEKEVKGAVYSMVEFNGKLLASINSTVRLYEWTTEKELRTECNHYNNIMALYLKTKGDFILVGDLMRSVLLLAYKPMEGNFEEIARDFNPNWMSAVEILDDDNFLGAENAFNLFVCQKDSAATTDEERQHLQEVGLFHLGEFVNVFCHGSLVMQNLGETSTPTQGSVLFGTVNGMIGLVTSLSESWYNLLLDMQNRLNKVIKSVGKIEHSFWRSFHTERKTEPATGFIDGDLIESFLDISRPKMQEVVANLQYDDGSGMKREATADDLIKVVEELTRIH
# PAXIP1, Q6ZW49, UniProt Q6ZW49, whole entry: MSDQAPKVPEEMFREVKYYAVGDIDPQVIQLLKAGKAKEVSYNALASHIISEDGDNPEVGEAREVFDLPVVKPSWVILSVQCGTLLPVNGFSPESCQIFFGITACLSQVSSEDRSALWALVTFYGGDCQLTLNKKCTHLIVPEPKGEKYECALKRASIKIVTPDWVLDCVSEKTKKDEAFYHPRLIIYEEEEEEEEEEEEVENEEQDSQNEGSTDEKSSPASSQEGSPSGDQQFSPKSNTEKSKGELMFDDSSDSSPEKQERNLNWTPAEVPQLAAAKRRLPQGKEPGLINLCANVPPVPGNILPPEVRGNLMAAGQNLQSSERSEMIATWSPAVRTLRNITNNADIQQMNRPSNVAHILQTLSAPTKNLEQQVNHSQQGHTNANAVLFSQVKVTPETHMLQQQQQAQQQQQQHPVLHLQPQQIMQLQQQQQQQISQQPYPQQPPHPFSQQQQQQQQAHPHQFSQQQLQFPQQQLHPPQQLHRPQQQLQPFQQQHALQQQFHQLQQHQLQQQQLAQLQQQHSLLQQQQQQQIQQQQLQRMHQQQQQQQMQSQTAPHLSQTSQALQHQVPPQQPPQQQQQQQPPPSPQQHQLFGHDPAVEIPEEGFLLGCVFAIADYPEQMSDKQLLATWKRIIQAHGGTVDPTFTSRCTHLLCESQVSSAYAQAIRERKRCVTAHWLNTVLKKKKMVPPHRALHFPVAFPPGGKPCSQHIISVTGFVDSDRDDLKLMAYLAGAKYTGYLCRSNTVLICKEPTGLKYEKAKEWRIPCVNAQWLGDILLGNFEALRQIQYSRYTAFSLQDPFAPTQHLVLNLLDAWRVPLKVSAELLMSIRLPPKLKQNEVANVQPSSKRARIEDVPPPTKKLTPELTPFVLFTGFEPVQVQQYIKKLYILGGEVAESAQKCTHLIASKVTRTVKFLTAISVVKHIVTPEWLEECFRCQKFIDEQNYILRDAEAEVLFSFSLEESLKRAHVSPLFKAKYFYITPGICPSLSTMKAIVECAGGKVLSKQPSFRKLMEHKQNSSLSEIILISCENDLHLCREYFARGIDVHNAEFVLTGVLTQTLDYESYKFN
# The other results are listed elsewhere or left out. Only hits are listed; about a third recur on repeated control peptides.
# Columns and labels:
# Assay in all cases: PRISMA enrichment of interactor (LFQ) in peptide spot vs all other peptide spots (log2 fold change); higher = stronger / more specific binding of the interactor to the peptide
# ATG3, Q9NT62 = target: ATG3, Q9NT62
# Procedure: (§1)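 PRISMA: 15-aa overlapping tiles (offset 8 aa) of 60 microproteins, plus SOS1/GLUT1 control peptides, were spot-synthesized on cellulose membranes in triplicate. Membranes were incubated with benzonase-treated HEK293T lysate, and bound proteins were identified by LC-MS/MS with LFQ. Enrichment is the log2 fold change of each protein in one spot versus all other spots. Only interactors passing the significance cutoff are listed.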
# CLASP2, O75122 = target: CLASP2, O75122
# Procedure: as §1
# CPSF3, Q9UKF6 = target: CPSF3, Q9UKF6
# Procedure: as §1
# DDX46, Q7L014 = target: DDX46, Q7L014
# Procedure: as §1
# EIF2B2, P49770 = target: EIF2B2, P49770
# Procedure: as §1
# ETF1, P62495 = target: ETF1, P62495
# Procedure: as §1
# GTF2I, P78347 = target: GTF2I, P78347
# Procedure: as §1
# HDLBP, Q00341 = target: HDLBP, Q00341
# Procedure: as §1
# KAT7, O95251 = target: KAT7, O95251
# Procedure: as §1
# LYRM2, Q9NU23 = target: LYRM2, Q9NU23
# Procedure: as §1
# MRPL11, Q9Y3B7 = target: MRPL11, Q9Y3B7
# Procedure: as §1
# NACA = target: NACA
# Procedure: as §1
# PSMD12, O00232 = target: PSMD12, O00232
# Procedure: as §1
# PSMG1, O95456 = target: PSMG1, O95456
# Procedure: as §1
# RTF1, Q92541 = target: RTF1, Q92541
# Procedure: as §1
# TOP1, P11387 = target: TOP1, P11387
# Procedure: as §1
# UTP6, Q9NYH9 = target: UTP6, Q9NYH9
# Procedure: as §1
# XRN2, Q9H0D6 = target: XRN2, Q9H0D6
# Procedure: as §1
# ATG4B, Q9Y4P1 = target: ATG4B, Q9Y4P1
# Procedure: as §1
# GLS, O94925 = target: GLS, O94925
# Procedure: as §1
# KPNA2, P52292 = target: KPNA2, P52292
# Procedure: as §1
# PHF8, Q9UPP1 = target: PHF8, Q9UPP1
# Procedure: as §1
# ZNF622, Q969S3 = target: ZNF622, Q969S3
# Procedure: as §1
# ATIC, P31939 = target: ATIC, P31939
# Procedure: as §1
# CLTA, P09496 = target: CLTA, P09496
# Procedure: as §1
# DCAF16, Q9NXF7 = target: DCAF16, Q9NXF7
# Procedure: as §1
# DDX49, Q9Y6V7 = target: DDX49, Q9Y6V7
# Procedure: as §1
# HSPA9, P38646 = target: HSPA9, P38646
# Procedure: as §1
# MARCKSL1, P49006 = target: MARCKSL1, P49006
# Procedure: as §1
# PDIA3, P30101 = target: PDIA3, P30101
# Procedure: as §1
# PUSL1, Q8N0Z8 = target: PUSL1, Q8N0Z8
# Procedure: as §1
# VCP, P55072 = target: VCP, P55072
# Procedure: as §1
# ATP1A1, P05023 = target: ATP1A1, P05023
# Procedure: as §1
# CARM1, Q86X55 = target: CARM1, Q86X55
# Procedure: as §1
# CCNT1, O60563 = target: CCNT1, O60563
# Procedure: as §1
# CDK5, Q00535 = target: CDK5, Q00535
# Procedure: as §1
# CHD4, Q14839 = target: CHD4, Q14839
# Procedure: as §1
# DDB1, Q16531 = target: DDB1, Q16531
# Procedure: as §1
# DHX33, Q9H6R0 = target: DHX33, Q9H6R0
# Procedure: as §1
# DUSP11, O75319 = target: DUSP11, O75319
# Procedure: as §1
# EIF2B3, Q9NR50 = target: EIF2B3, Q9NR50
# Procedure: as §1
# GPD1L, Q8N335 = target: GPD1L, Q8N335
# Procedure: as §1
# IRS4, O14654 = target: IRS4, O14654
# Procedure: as §1
# MRPL1, Q9BYD6 = target: MRPL1, Q9BYD6
# Procedure: as §1
# MRPL19, P49406 = target: MRPL19, P49406
# Procedure: as §1
# MRPL45, Q9BRJ2 = target: MRPL45, Q9BRJ2
# Procedure: as §1
# PAXIP1, Q6ZW49 = target: PAXIP1, Q6ZW49
# Procedure: as §1
# POLR2C, P19387 = target: POLR2C, P19387
# Procedure: as §1
# POLR2J3, Q9H1A7 = target: POLR2J3, Q9H1A7
# Procedure: as §1
# PPP4R3A, Q6IN85 = target: PPP4R3A, Q6IN85
# Procedure: as §1
# PRRC2C, Q9Y520 = target: PRRC2C, Q9Y520
# Procedure: as §1
# RECQL5, O94762 = target: RECQL5, O94762
# Procedure: as §1
# RPL37A, P61513 = target: RPL37A, P61513
# Procedure: as §1
# SRSF4, Q08170 = target: SRSF4, Q08170
# Procedure: as §1
# TIA1, P31483 = target: TIA1, P31483
# Procedure: as §1
binder,measurement,setting,value
RPPAWSAGPGAATRA [C5orf56],PRISMA enrichment of interactor (log2),"ATG3, Q9NT62",5.15
same,PRISMA enrichment of interactor (log2),"CLASP2, O75122",5.6
same,PRISMA enrichment of interactor (log2),"CPSF3, Q9UKF6",3.93
same,PRISMA enrichment of interactor (log2),"DDX46, Q7L014",4.09
same,PRISMA enrichment of interactor (log2),"EIF2B2, P49770",4.2
same,PRISMA enrichment of interactor (log2),"ETF1, P62495",6.62
same,PRISMA enrichment of interactor (log2),"GTF2I, P78347",5.64
same,PRISMA enrichment of interactor (log2),"HDLBP, Q00341",4.68
same,PRISMA enrichment of interactor (log2),"KAT7, O95251",3.68
same,PRISMA enrichment of interactor (log2),"LYRM2, Q9NU23",3.93
same,PRISMA enrichment of interactor (log2),"MRPL11, Q9Y3B7",5.62
same,PRISMA enrichment of interactor (log2),NACA,5.42
same,PRISMA enrichment of interactor (log2),"PSMD12, O00232",8.72
same,PRISMA enrichment of interactor (log2),"PSMG1, O95456",7.09
same,PRISMA enrichment of interactor (log2),"RTF1, Q92541",4.84
same,PRISMA enrichment of interactor (log2),"TOP1, P11387",6.28
same,PRISMA enrichment of interactor (log2),"UTP6, Q9NYH9",5.03
same,PRISMA enrichment of interactor (log2),"XRN2, Q9H0D6",4.33
ARLLDTCRLRYGGLA [CTD-2366F13.1],PRISMA enrichment of interactor (log2),"ATG4B, Q9Y4P1",5.47
same,PRISMA enrichment of interactor (log2),"GLS, O94925",4.93
same,PRISMA enrichment of interactor (log2),"KPNA2, P52292",4.89
same,PRISMA enrichment of interactor (log2),"PHF8, Q9UPP1",4.73
same,PRISMA enrichment of interactor (log2),"ZNF622, Q969S3",5.71
EGFRLHLEPGSIFMP [NAV2-AS2_2],PRISMA enrichment of interactor (log2),"ATIC, P31939",4.25
same,PRISMA enrichment of interactor (log2),"CLTA, P09496",5.24
same,PRISMA enrichment of interactor (log2),"DCAF16, Q9NXF7",3.98
same,PRISMA enrichment of interactor (log2),"DDX49, Q9Y6V7",5.08
same,PRISMA enrichment of interactor (log2),"HSPA9, P38646",4.27
same,PRISMA enrichment of interactor (log2),"MARCKSL1, P49006",5
same,PRISMA enrichment of interactor (log2),"PDIA3, P30101",5.83
same,PRISMA enrichment of interactor (log2),"PUSL1, Q8N0Z8",5.19
same,PRISMA enrichment of interactor (log2),"VCP, P55072",4.98
KLSWKTERPSPDDIV [RP11-620J15.3],PRISMA enrichment of interactor (log2),"ATP1A1, P05023",4.46
same,PRISMA enrichment of interactor (log2),"CARM1, Q86X55",4.98
same,PRISMA enrichment of interactor (log2),"CCNT1, O60563",4.18
same,PRISMA enrichment of interactor (log2),"CDK5, Q00535",6.08
same,PRISMA enrichment of interactor (log2),"CHD4, Q14839",4.88
same,PRISMA enrichment of interactor (log2),"DDB1, Q16531",6.09
same,PRISMA enrichment of interactor (log2),"DHX33, Q9H6R0",4.75
same,PRISMA enrichment of interactor (log2),"DUSP11, O75319",3.85
same,PRISMA enrichment of interactor (log2),"EIF2B3, Q9NR50",5.76
same,PRISMA enrichment of interactor (log2),"GPD1L, Q8N335",5.45
same,PRISMA enrichment of interactor (log2),"IRS4, O14654",5.34
same,PRISMA enrichment of interactor (log2),"MRPL1, Q9BYD6",4.22
same,PRISMA enrichment of interactor (log2),"MRPL19, P49406",7.85
same,PRISMA enrichment of interactor (log2),"MRPL45, Q9BRJ2",4.81
same,PRISMA enrichment of interactor (log2),"PAXIP1, Q6ZW49",3.78
same,PRISMA enrichment of interactor (log2),"POLR2C, P19387",4.86
same,PRISMA enrichment of interactor (log2),"POLR2J3, Q9H1A7",4.34
same,PRISMA enrichment of interactor (log2),"PPP4R3A, Q6IN85",4.77
same,PRISMA enrichment of interactor (log2),"PRRC2C, Q9Y520",4.52
same,PRISMA enrichment of interactor (log2),"RECQL5, O94762",5.56
same,PRISMA enrichment of interactor (log2),"RPL37A, P61513",5.41
same,PRISMA enrichment of interactor (log2),"SRSF4, Q08170",5.59
same,PRISMA enrichment of interactor (log2),"TIA1, P31483",4.53

# Three entries drawn at random from the list so far:
binder,measurement,setting,value
KLSWKTERPSPDDIV [RP11-620J15.3],PRISMA enrichment of interactor (log2),"CCNT1, O60563",4.18
ARLLDTCRLRYGGLA [CTD-2366F13.1],PRISMA enrichment of interactor (log2),"ZNF622, Q969S3",5.71
RPPAWSAGPGAATRA [C5orf56],PRISMA enrichment of interactor (log2),NACA,5.42
